Reference: article PMC5642895
No constants are given. Whether binding was seen depends on the method and setting.

Target: KLC2-TPR^[A1-B6] (mouse kinesin light chain 2 TPR domain, TPR motifs 1 to 6, residues 190–484) (mouse) (UniProt O88448)
Assay: SEC-MALS; SEC-MALLS of KLC2-TPR[A1-B6] on Superdex 200 10/300 GL increase, 20mM Hepes pH 7.0, 300mM (salt not given), 0.5 ml/min; both purified

- binding: no binding
B1: KLC2-TPR^[A1-B6] (mouse kinesin light chain 2 TPR domain, TPR motifs 1 to 6, residues 190–484) (domain or fragment, UniProt O88448 190-484)
chain: GYEIPARLRTLHNLVIQYASQGRYEVAVPLCKQALEDLEKTSGHDHPDVATMLNILALVYRDQNKYKDAAHLLNDALAIREKTLGKDHPAVAATLNNLAVLYGKRGKYKEAEPLCKRALEIREKVLGKFHPDVAKQLSNLALLCQNQGKAEEVEYYYRRALEIYATRLGPDDPNVAKTKNNLASCYLKQGKYQDAETLYKEILTRAHEKEFGSVNGENKPIWMHAEEREESKDKRRDRRPMEYGSWYKACKVDSPTVNTTLRTLGALYRPEGKLEAAHTLEDCASRSRKQGLDPA
